Measurements: doi:10.1101/2022.01.21.477277

B1: Hyd F4 (aa 2412-2887), yeast two-hybrid fusion (domain or fragment, UniProt P51592 2412-2885)
chain: AKIPNLESVQVGTNHSKYVVPFSSILRSRTVSGSSRDQSTLQRRGSNSKILWRSARERKALNLDARPYTPPNSSDNATPESLNDHLSVHLQQIGERLYPKIHSINQTHAPKITGMLLEIPTPQLLSVISSDETLRQKVNEAIEIITFKQKSETSAQSSQPKKSPSVVVVDPVDDDNEPLFYSPGKRGFYTPRQGFASFERINAFRNIGRLIGLCLLQNELLPLFLQRHVLKYILGRKIKFHDLAFFDPALYESFRQIIQNAQTKEGEETINRMELCFVIDLMKEEGCGNRELIPGGRDVAVTSSNIFEYVRRYTEYRLIKSQEKALEALKDGVFDVLPDNSMINLTAEDLRLLLNGVGDINVSTLISYTTFNDESSEGPDKLLKFKKWFWSIVEKMNIMERQDLVYFWTGSPALPASEEGFQPLPSVTIRPADDSHLPTANTCISRLYIPLYSSKSILRSKMLMAIKSKNFGFV
B2: Poe^F3 (aa 2301-3500), yeast two-hybrid fusion (domain or fragment, UniProt Q9VLT5 2301-3500)
chain: TGHPGLVYASMQTSNNPIILMITPERIYLQEIKAQSAKSRIMDVVGIRHAVAGVEKTTLLLLCEDGSLRIFSAQPEYTSFWLSPQVQPFGNQLYSSTLMAKGGGSGSTSKSKSNTASGKMTSRKASQQQKQPTAGGQPVFPIDFFEHCNMLADVEFGGNDLLQIYNKQKLKTRLFSTGMFVASTRSNGFTLEVINNDPNVVIVGIRVLIGTQDVQRAPQSVTILGRTIPTPVRRARWFDIPLTREEMLQSDKLLKVVFAKAPDPEHVTLLDCIEVYGKSKELVGWPDESEDVTVPGSSAPAVSSSQASSANFGEGFNCITQLDRMANHLLEVMDCALHLLGSGVPASMRQKAVKTASALLLLPTPNPVQTQARYVLATLYGTRALYHNYKDGVLLQFVNRELQSMQPKLEKLETLREIDPEAFYRLVLMVRGIANARPQSLAKICVENNYDIVPTLMGIVLELHKVTPTLDEPVNIVKRGLCQPETIVHCLVEIMYGFALADPGQVGRMTKYFIDLLKHDASVISHSAKEALILLLSPRMKRRKVAIVTPPACSTPTPSTSTMQALQAAASSAASDIIEEAAGVVVDGSVGGGGLPEPNADAEGAAVGVGGVGQQQMLNLEAFMGGGFPRLLGLPEDADDEAIMDIAIALSLQQHGGDANALQSLQQGLANLQGIRQATAMAAAVNAAANVSLGGSDDDEGSNVATDGSTLRTSPAEPAGSGGSESGGSGVESIGGTSARSSNFGDHANASPPRQGSTKDDQEQPGPSGVAGSGGVAVLSAMSSSEDNEANEDDKLSKLHDLRIAVLESIIQHLGTFDLCNGLQAIPLIQVILMLTTDLNGNNERDQQVLHDLLTALVDYVEIGKRGAAARMETKCPGNEVRLALLSLFGVLMGKTKSKQTGTTSPPHQFKDNSSFVASTTANVLSKSGAFVYALEALNTLLVHWKNVLGDPYAAGGGLASQSAQASGGASGPGVQLLKPIKHGPKPDISILIPHNYLKNYPDIFESYDGLLTEIIVRLPYQILRLSSAHPDNYDSGFCEAMTFTLCEYMMLNLNTLLRRQVRKLLMYICGSKEKFRMYRDGHSLDAHFRVVKRVCNIVSSKTGAPYNANPPMLSYDALVELTEHLRTCQEISQMRTGNWQKFCVVHEDALAMLMEIACYQLDDGVSPIIIQLLQAAVCNLPPPSGSKQAQPQPSTSSAS

How the values were obtained:
[1] = target: PLP^F2 (aa 584-1376), yeast two-hybrid fusion (Drosophila); assay: two-hybrid
[2] = target: PLP^F2-F3 (aa 584-1811), yeast two-hybrid fusion (Drosophila); assay: two-hybrid

| Binder | binding [1] | binding [2] |
| --- | --- | --- |
| B1 | binds | – |
| B2 | – | no binding |

No constants are given. Whether binding was seen depends on the method and setting. For some assays here: Binding can be weak; no strength is given. Sequences can lack the tags named with a protein.
